Reference: the supplement of paper PMC4604168 (melanoma cell lines)
The list shows a part of the results. Many values rest on one well or one pass, so single values are uncertain.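 Imaging used 1,536-well plates; nuclei positive for cleaved PARP by antibody were divided by total DNA-stained nuclei to yield the apoptosis fraction. Doses for screening kept most cells viable, and cell lines differ markedly in resting and induced cleaved-PARP levels.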

Assays:
Test in all cases: cleaved PARP positive nuclei fraction relative to DMSO control; melanoma cells; higher = more apoptosis
Settings in all cases: library dose: low library concentration; 72 h
[1] = test system: MeWo
[2] = test system: RPMI7951
[3] = test system: RVH-421
[4] = test system: SkMel28
[5] = test system: SkMel2
[6] = test system: SkMel30
[7] = test system: SkMel5
[8] = test system: UACC257
[9] = test system: UACC62
[10] = test system: WM115
[11] = test system: WM1716
[12] = test system: WM1745
[13] = test system: WM3526
[14] = test system: WM3619
[15] = test system: WM451Lu
[16] = test system: MZ2-MEL

Row | Structure (SMILES) | cleaved PARP positive nuclei fraction [1] [%] | cleaved PARP positive nuclei fraction [2] [%] | cleaved PARP positive nuclei fraction [3] [%] | cleaved PARP positive nuclei fraction [4] [%] | cleaved PARP positive nuclei fraction [5] [%] | cleaved PARP positive nuclei fraction [6] [%] | cleaved PARP positive nuclei fraction [7] [%] | cleaved PARP positive nuclei fraction [8] [%] | cleaved PARP positive nuclei fraction [9] [%] | cleaved PARP positive nuclei fraction [10] [%] | cleaved PARP positive nuclei fraction [11] [%] | cleaved PARP positive nuclei fraction [12] [%] | cleaved PARP positive nuclei fraction [13] [%] | cleaved PARP positive nuclei fraction [14] [%] | cleaved PARP positive nuclei fraction [15] [%] | cleaved PARP positive nuclei fraction [16] [%]
1 | N#CC[C@H](C1CCCC1)n1cc(-c2ncnc3[nH]ccc23)cn1 [ruxolitinib] + CCN(CC)CCCCNc1ncc2cc(-c3cc(OC)cc(OC)c3)c(NC(=O)NC(C)(C)C)nc2n1 [PD173074] (first compound 1 µM, partner dose 0.1 µM) | 57.8 | 58.2 | 115 | 88.7 | 47.7 | 53.4 | 320 | 93.3 | 85.7 | 63.2 | 21.2 | 83.9 | 45.1 | 84.4 | 57.5 | –
2 | Cc1ccc(Nc2nccc(N(C)c3ccc4c(C)n(C)nc4c3)n2)cc1S(N)(=O)=O [Pazopanib] + C=CCn1c(=O)c2cnc(Nc3ccc(N4CCN(C)CC4)cc3)nc2n1-c1cccc(C(C)(C)O)n1 [MK1775] (first compound 0.4 µM, partner dose 0.02 µM) | 98.7 | 106 | 42.5 | 213 | 59 | 92.6 | 128 | 66.1 | 182 | 253 | 61.3 | 101 | 72.3 | 115 | 262 | –
3 | Cc1ccc(Nc2nccc(N(C)c3ccc4c(C)n(C)nc4c3)n2)cc1S(N)(=O)=O [Pazopanib] + CNC(=O)c1cc(Oc2ccc(NC(=O)Nc3ccc(Cl)c(C(F)(F)F)c3)cc2)ccn1 [sorafenib] (first compound 0.4 µM, partner dose 0.4 µM) | 86.1 | 159 | 78.8 | 68.2 | – | 120 | – | – | 195 | 118 | 86.8 | 105 | 246 | 112 | 81.4 | 40.8
4 | O=c1[nH]nc(Sc2ncc([N+](=O)[O-])s2)n1-c1ccc2c(c1)OCCO2 + NC(=O)c1ccc(N(C(N)=O)c2c(F)cccc2F)nc1-c1ccc(F)cc1F [VX702] (first compound 0.2 µM, partner dose 0.4 µM) | 98.6 | 202 | 104 | 180 | – | 96.2 | – | – | 49.8 | 81.8 | 30.3 | 107 | 67.4 | 71.7 | 49.1 | 93.6
5 | CCCCCCCCCCCCCCCCCCOP(=O)([O-])OC1CC[N+](C)(C)CC1 [Perifosine] + Cn1cncc1[C@@](N)(c1ccc(Cl)cc1)c1ccc2c(c1)c(-c1cccc(Cl)c1)cc(=O)n2C [tipifarnib] (first compound 0.4 µM, partner dose 0.01 µM) | 57.8 | 134 | 112 | 38.5 | 264 | 73.3 | 120 | 136 | 87.5 | 266 | 249 | 2040 | 78.4 | 241 | 156 | –
6 | Cc1cn(-c2cc(NC(=O)c3ccc(C)c(Nc4nccc(-c5cccnc5)n4)c3)cc(C(F)(F)F)c2)cn1 [nilotinib] + CNC(=O)c1cc(Oc2ccc(NC(=O)Nc3ccc(Cl)c(C(F)(F)F)c3)cc2)ccn1 [sorafenib] (first compound 0.2 µM, partner dose 0.4 µM) | 69.6 | 114 | 50.3 | – | 58.7 | 67 | – | – | 108 | 50.8 | 164 | 99 | 78.8 | 82.7 | 87.1 | 134
7 | CC[C@]1(O)C[C@H]2CN(CCc3c([nH]c4ccccc34)[C@@](C(=O)OC)(c3cc4c(cc3OC)N(C=O)[C@H]3[C@@](O)(C(=O)OC)[C@H](OC(C)=O)[C@]5(CC)C=CCN6CC[C@]43[C@@H]65)C2)C1 [vincristine] + Cn1c(Nc2ccc(C(F)(F)F)cc2)nc2cc(Oc3ccnc(-c4ncc(C(F)(F)F)[nH]4)c3)ccc21 [CHIR265] (first compound 0.0001 µM, partner dose 0.08 µM) | 1630 | 425 | 138 | 84.5 | – | 221 | – | – | 690 | 1200 | 563 | 157 | 209 | 143 | 130 | 243
